{"source": "paper PMC12040169", "about": "(PLOS Biology, 2025)", "note": "Some of the results follow."}
{"tested_on": "T1, CTL2-GFP (C. trachomatis L2/434/Bu, GFP-expressing)", "T1 construct": "L2/434/Bu, GFP-expressing", "parameters": "species or system HeLa; Intracellular C. trachomatis growth in HeLa cells, bulk GFP fluorescence relative to DMSO", "settings": "bulk GFP, single well; 28.5 h, 10 µM; inhibitor", "units": {"% of control remaining": "%"}}
{"smiles": "CCOC(=O)C1(Cc2cc(-c3ccc(F)cc3)no2)CCNCC1", "note": "[CBK284581]", "% of control remaining": 116.751}
{"smiles": "CCN(Cc1ccncc1)C(=O)NCc1cccnc1", "note": "[CBK145054]", "% of control remaining": 110.57}
{"smiles": "O=C(NCCC1=CCCCC1)Nc1ccc(F)c(F)c1F", "note": "[CBK043265]", "% of control remaining": 147.45}
{"smiles": "Cc1occc1C(=O)Nc1nc(CC(=O)N2CC(C)SC(C)C2)cs1", "note": "(centres unmarked) [CBK306271]", "% of control remaining": 133.061}
{"smiles": "CC(=O)Cn1nnnc1C", "note": "[CBK020588]", "% of control remaining": 131.165}
{"smiles": "COc1ccc(Nc2cccc(-c3cnc(OC)nc3OC)n2)cc1", "note": "[CBK036825]", "% of control remaining": 183.484}
{"smiles": "Cn1ncc(N2CCC(CNC(=O)c3ccc(F)cc3Cl)C2)cc1=O", "note": "(centres unmarked) [CBK306643]", "% of control remaining": 110.41}
{"smiles": "CN(CC(N)=O)c1nc(-c2cccnc2)nc2ccccc12", "note": "[CBK306346]", "% of control remaining": 157.305}
{"smiles": "N#Cc1ccc(C(=O)N2C[C@@H]3C[C@H](C2)c2c(-c4cccc(C#N)c4)ccc(=O)n2C3)cc1", "note": "[CBK289196]", "% of control remaining": 130.652}
{"smiles": "c1ccc2c(Sc3cncc(N4CCCC4)n3)cccc2c1", "note": "[CBK089594]", "% of control remaining": 101.208}
{"smiles": "COc1ccc(C(=O)/C=C(\\Nc2cccc(C(F)(F)F)c2)C(=O)O)cc1", "note": "[CBK264387]", "% of control remaining": 133.799}
{"smiles": "CCOC(=O)Cn1nc(C)c(Cc2c(Cl)cccc2Cl)c1CC", "note": "[CBK113223]", "% of control remaining": 125.109}
{"smiles": "Cc1ccn(-c2ccc(N3CCC4(CCOC4)C3)nn2)n1", "note": "(centres unmarked) [CBK306302]", "% of control remaining": 170.99}
{"smiles": "COc1ccc(/C=C/C(=O)O)cc1S(=O)(=O)NCc1ccccc1", "note": "[CBK287252]", "% of control remaining": 126.777}
{"smiles": "COc1ccc2[nH]c3c(c2c1)CCNC31CCN(C(=O)NC(C)(C)C)CC1", "note": "[CBK047069]", "% of control remaining": 119.756}
{"smiles": "O=C(c1ccc(N2CCSCC2)nc1)N1CCC(N2CCOCC2)CC1", "note": "[CBK306582]", "% of control remaining": 88.6115}
{"smiles": "Cc1ccc2cc(S(=O)(=O)NCCCC(=O)O)ccc2c1", "note": "[CBK299818]", "% of control remaining": 119.854}
{"smiles": "O=C(Nc1ccc(S(=O)(=O)Nc2nccc(C3Cc4ccccc4C(=O)O3)n2)cc1)c1ccccc1", "note": "(centres unmarked) [CBK267306]", "% of control remaining": 120.14}
{"smiles": "Cc1nc(C)c(CCC(=O)Nc2cccc(F)c2)c(=O)[nH]1", "note": "[CBK305026]", "% of control remaining": 131.189}
{"smiles": "C#CCn1c(=O)n(C)n(C)c1=O", "note": "[CBK023151]", "% of control remaining": 146.612}
{"smiles": "CCN(c1ccccc1C(=O)O)S(=O)(=O)/C=C/c1ccccc1", "note": "[CBK287236]", "% of control remaining": 116.148}
{"smiles": "O=C(c1cnccc1C(F)(F)F)N1CCc2ccccc21", "note": "[CBK200401]", "% of control remaining": 97.2818}
{"smiles": "O=C(/C=C/c1ccc2c(c1)OCO2)NCc1ccc(-c2csnn2)cc1", "note": "[CBK149297]", "% of control remaining": 125.463}
{"smiles": "CC(C)(O)C#Cc1ccc(C(=O)N2CCCC2C(=O)O)s1", "note": "(centres unmarked) [CBK286869]", "% of control remaining": 127.692}
{"smiles": "NS(=O)(=O)c1ccc(Nc2ncccc2[N+](=O)[O-])cc1", "note": "[CBK261724]", "% of control remaining": 104.862}
{"smiles": "Cc1noc(C)c1CN1CCC(Cc2ccccc2)CC1", "note": "[CBK305752]", "% of control remaining": 109.486}
{"smiles": "COC(=O)c1cc(NC(=O)CC2Sc3ccccc3NC2=O)cc(C(=O)OC)c1", "note": "(centres unmarked) [CBK266260]", "% of control remaining": 123.143}
{"smiles": "OC(CNCCc1c[nH]c2ccccc12)COc1cccc2c1CCCC2", "note": "(centres unmarked) [CBK003831]", "% of control remaining": 86.2004}
{"smiles": "COc1cc(CNC2CCCCCC2)c([N+](=O)[O-])cc1OC", "note": "[CBK262194]", "% of control remaining": 100}
{"smiles": "COc1cncc(-c2cc(Nc3ccc(OC)c(OC)c3)ncn2)c1", "note": "[CBK090824]", "% of control remaining": 94.7055}
{"smiles": "CN(CCc1ccccc1)Cc1nc2ccccc2c(=O)[nH]1", "note": "[CBK283204]", "% of control remaining": 93.6625}
{"smiles": "O=C(O)c1cccnc1SC1CC(=O)N(c2ccc(F)cc2)C1=O", "note": "(centres unmarked) [CBK265582]", "% of control remaining": 107.666}
{"smiles": "Cc1ccc(-c2nccnc2OCc2ccc3c(c2)OCO3)c(C)c1", "note": "[CBK106982]", "% of control remaining": 87.9356}
{"smiles": "CC1C(=O)N2CCCc3cc(S(=O)(=O)NCc4ccc5c(c4)OCO5)cc1c32", "note": "(centres unmarked) [CBK294419]", "% of control remaining": 128.906}
{"smiles": "NS(=O)(=O)c1cccc(NC(=O)c2cccs2)c1", "note": "[CBK024419]", "% of control remaining": 125.198}
{"smiles": "Nc1ncnc(Nc2ccc(F)cc2Cl)c1[N+](=O)[O-]", "note": "[CBK267255]", "% of control remaining": 152.771}
{"smiles": "CCCCN(C=O)c1c(CC)nc2c(OCc3ccccc3C)cccn12", "note": "[CBK147639]", "% of control remaining": 92.8226}
{"smiles": "CC(=O)c1ccc(-c2cnc(N)c(NC3CCCCC3)n2)s1", "note": "[CBK063596]", "% of control remaining": 165.778}
{"smiles": "O=C(O)COc1ccc(S(=O)(=O)Nc2ccc(F)cc2)cc1", "note": "[CBK268442]", "% of control remaining": 109.369}
{"smiles": "Cc1cc(-c2cccs2)c(C#N)c(SCc2cccnc2)n1", "note": "[CBK270172]", "% of control remaining": 153.271}
{"smiles": "Cc1nc2cc(OCc3nc(C(=O)NCC(O)CO)co3)ccc2s1", "note": "(centres unmarked) [CBK307067]", "% of control remaining": 122.847}
{"smiles": "COc1cccc(CN2CCC(c3ncc(C(=O)Nc4ccc(F)cc4)c(C)n3)CC2)c1", "note": "[CBK285630]", "% of control remaining": 111.382}
{"smiles": "COc1ccc(-c2cc(C(=O)NCc3ccc(F)cc3)cnc2-c2cccc(C)c2)cc1", "note": "[CBK036702]", "% of control remaining": 166.729}
{"smiles": "CCc1c(C)nc2c(C(=O)NCCCN3CCCC3=O)cnn2c1C", "note": "[CBK162128]", "% of control remaining": 120.84}
{"smiles": "O=S(=O)(Cc1ccc(-c2nc(-c3ccncc3)no2)o1)c1ccccc1", "note": "[CBK288579]", "% of control remaining": 145.951}
{"smiles": "N#Cc1cccc(C(=O)NCCc2nnc3n2CCCCC3)c1", "note": "[CBK259813]", "% of control remaining": 76.8627}
{"smiles": "CCCCOc1cccc(C(=O)Nc2ccc(-c3nc4ccccc4o3)c(O)c2)c1", "note": "[CBK263435]", "% of control remaining": 120.935}
{"smiles": "O=C(Nc1nccc(N2CCNCC2)n1)c1cccs1", "note": "[CBK004305T]", "% of control remaining": 115.415}
{"smiles": "OC(CNc1nccnc1-c1ccccc1Cl)COc1ccccc1", "note": "(centres unmarked) [CBK037085]", "% of control remaining": 104.263}
{"smiles": "COC(=O)Cc1nc(NS(=O)(=O)c2ccc(Oc3cccc(Cl)c3C#N)cc2)sc1C", "note": "[CBK000744]", "% of control remaining": 104.083}
{"smiles": "O=C(Nc1cccnc1N1CCNCC1)c1ccoc1", "note": "[CBK029417T]", "% of control remaining": 197.828}
{"smiles": "O=C(O)CCCn1c(=O)c2cc3c(=O)n(CCCC(=O)O)c(=O)c3cc2c1=O", "note": "[CBK265748]", "% of control remaining": 161.046}
{"smiles": "NNC(=O)Cn1c(-c2ccccn2)nc2ccccc21", "note": "[CBK263489]", "% of control remaining": 122.975}
{"smiles": "c1ccc(COc2nccnc2-c2cccs2)nc1", "note": "[CBK107055]", "% of control remaining": 95.6741}
{"smiles": "CC(=O)NC(CC(=O)NCc1cccnc1-n1cncn1)c1ccc(Cl)cc1", "note": "(centres unmarked) [CBK298314]", "% of control remaining": 91.9787}
{"smiles": "Cc1sc2nc(Cc3ccccc3)n(C3CCN(C(=O)c4ccco4)CC3)c(=O)c2c1C", "note": "[CBK286317]", "% of control remaining": 93.6376}
{"smiles": "Cc1nn(C(C)CC(=O)Nc2ccnn2C(C)C)c(C)c1Cl", "note": "(centres unmarked) [CBK281537]", "% of control remaining": 119.813}
{"smiles": "CCCC1C2C=CC(C2)C1/C=N/O", "note": "(centres unmarked) [CBK009671]", "% of control remaining": 123.778}
{"smiles": "O=C(/C=N/O)Nc1cc(C(F)(F)F)ccc1Cl", "note": "[CBK288405]", "% of control remaining": 117.87}
{"smiles": "O=C(CSCC(=O)Nc1ccc2ccccc2c1)NCC1CCCO1", "note": "(centres unmarked) [CBK058183]", "% of control remaining": 142.317}
{"smiles": "Cc1ccc(C)c(NC(=O)N[C@@H](CC(C)C)C(=O)O)c1", "note": "[CBK286678]", "% of control remaining": 137.773}
{"smiles": "CC1=NN(c2ccc(S(N)(=O)=O)cc2)C(=O)/C1=C\\c1ccc(-c2ccc(S(N)(=O)=O)cc2)o1", "note": "[CBK263476]", "% of control remaining": 111.519}
{"smiles": "Cn1c(O)c(CCNc2cc([C@H]3C[C@@H](O)C3)nc(N)n2)cnc1=O", "note": "[CBK306956]", "% of control remaining": 135.442}
{"smiles": "Cc1ccc(C(=O)COC(=O)CCN2C(=O)C3C4CCC(C4)C3C2=O)cc1[N+](=O)[O-]", "note": "(centres unmarked) [CBK264096]", "% of control remaining": 129.019}
{"smiles": "CCNc1cncc(-c2ccc(C(N)=O)cc2)n1", "note": "[CBK065414]", "% of control remaining": 156.473}
{"smiles": "O=C(O)CC1SC(Nc2ccccc2F)=NC1=O", "note": "(centres unmarked) [CBK059096]", "% of control remaining": 97.2471}
{"smiles": "O=C(O)c1cccc(-n2ncc(-c3ccsc3)n2)c1", "note": "[CBK112859]", "% of control remaining": 117.442}
{"smiles": "CN1C[C@H]2N(C)C(=O)c3ccccc3C(=O)[C@@]2(C)C1", "note": "[CBK283482]", "% of control remaining": 124.676}
{"smiles": "COCc1ccc(C(=O)N2CCC(c3cc4cnccc4[nH]3)CC2)o1", "note": "[CBK283073]", "% of control remaining": 84.207}
{"smiles": "COCCn1c(=O)n(Cc2ccccc2F)c2cccnc21", "note": "[CBK283965]", "% of control remaining": 126.751}
{"smiles": "Cc1nc(SCCC(=O)Nc2ccccc2C#N)nc2cc3c(cc12)CCC3", "note": "[CBK268812]", "% of control remaining": 138.233}
{"smiles": "Cc1cc2cc(C(=O)N3CCC(c4c(C(=O)NC(C)C)sc5ccccc45)C3)ccc2o1", "note": "(centres unmarked) [CBK285873]", "% of control remaining": 23.3335}
{"smiles": "O=S(=O)(Nc1nc(-c2sccc2Cl)cs1)c1cc(Br)c(Cl)s1", "note": "[CBK200030]", "% of control remaining": 128.724}
{"smiles": "COc1ccc(C(=O)Nc2nc3c(OC)ccc(C)c3s2)cc1", "note": "[CBK287615]", "% of control remaining": 120.114}
{"smiles": "CC1Cc2ccccc2N1C(=O)Cn1c(CCCO)nc2ccccc21", "note": "(centres unmarked) [CBK297548]", "% of control remaining": 134.586}
{"smiles": "COc1cc(-c2cn3ccnc3c(N[C@H](CO)C(C)C)n2)cc(OC)c1OC", "note": "[CBK066220]", "% of control remaining": 144.544}
{"smiles": "Cc1n[nH]c(C)c1CC(=O)NC(Cc1ccsc1)c1ccccn1", "note": "(centres unmarked) [CBK285271]", "% of control remaining": 139.085}
{"smiles": "CN(C)Cc1c(O)ccc2c(=O)c(Oc3ccc(-c4ccccc4)cc3)c(C(F)(F)F)oc12", "note": "[CBK264519]", "% of control remaining": 127.037}
{"smiles": "COc1cc(S(=O)(=O)N2CCN(S(=O)(=O)c3cccc([N+](=O)[O-])c3)CC2)ccc1Cl", "note": "[CBK266285]", "% of control remaining": 117.106}
{"smiles": "O=C(O)c1cccc(NS(=O)(=O)c2cccc(Cl)c2Cl)c1", "note": "[CBK155686]", "% of control remaining": 106.226}
